Publication PMC6073292
No constants are given. Whether binding was seen depends on the method and setting. In cells and extracts the contact can be indirect. Some binding calls cover weakened binding; strength is not graded here. For some of these results: Where a sequence is shown, tags or fusion partners need not be part of it.

Key:
[1] = biological target: T1, Myc-Dvl1 (Dishevelled-1, full length) (human) (UniProt O14640); experiment: co-IP; SK-N-SH cells co-transfected with Myc-Dvl1 (or truncations) and HA-Ngb, 24 h; lysed in RIPA buffer; IP with anti-Myc antibody and Protein A/G plus-agarose at 4 °C overnight, control IgG; blot with anti-HA and anti-Myc
T1 sequence: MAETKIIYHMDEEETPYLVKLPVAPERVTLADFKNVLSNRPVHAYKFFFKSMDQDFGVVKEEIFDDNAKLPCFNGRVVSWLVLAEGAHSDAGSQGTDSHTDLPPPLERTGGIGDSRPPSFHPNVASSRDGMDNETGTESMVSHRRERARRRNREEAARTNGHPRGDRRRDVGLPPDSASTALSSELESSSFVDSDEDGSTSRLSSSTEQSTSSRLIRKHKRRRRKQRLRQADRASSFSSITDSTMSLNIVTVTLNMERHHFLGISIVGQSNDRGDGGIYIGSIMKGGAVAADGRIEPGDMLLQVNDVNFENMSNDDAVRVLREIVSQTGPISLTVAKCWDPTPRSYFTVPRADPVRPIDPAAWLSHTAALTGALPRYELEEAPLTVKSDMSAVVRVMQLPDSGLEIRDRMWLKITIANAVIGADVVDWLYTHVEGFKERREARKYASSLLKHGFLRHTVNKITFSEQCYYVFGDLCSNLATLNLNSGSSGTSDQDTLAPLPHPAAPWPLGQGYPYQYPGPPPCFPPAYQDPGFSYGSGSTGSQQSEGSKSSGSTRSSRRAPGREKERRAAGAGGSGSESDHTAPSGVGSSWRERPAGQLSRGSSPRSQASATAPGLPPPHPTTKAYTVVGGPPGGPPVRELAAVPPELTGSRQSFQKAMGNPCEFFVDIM

[2] = biological target: T2, Myc-Dvl1(337–670) (human) (UniProt O14640); experiment: as above
T2 sequence: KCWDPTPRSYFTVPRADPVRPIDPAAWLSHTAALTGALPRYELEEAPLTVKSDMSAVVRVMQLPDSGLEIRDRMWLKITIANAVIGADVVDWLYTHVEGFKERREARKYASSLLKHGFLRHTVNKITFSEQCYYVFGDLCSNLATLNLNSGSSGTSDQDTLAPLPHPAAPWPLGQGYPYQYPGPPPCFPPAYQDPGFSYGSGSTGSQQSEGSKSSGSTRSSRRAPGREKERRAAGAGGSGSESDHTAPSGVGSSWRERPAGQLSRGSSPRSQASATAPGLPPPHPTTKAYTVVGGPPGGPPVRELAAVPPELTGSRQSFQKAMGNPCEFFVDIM

Myc-Dvl1(1–250) (human) = biological target: T3, Myc-Dvl1(1–250) (human) (UniProt O14640); experiment: as above
T3 sequence: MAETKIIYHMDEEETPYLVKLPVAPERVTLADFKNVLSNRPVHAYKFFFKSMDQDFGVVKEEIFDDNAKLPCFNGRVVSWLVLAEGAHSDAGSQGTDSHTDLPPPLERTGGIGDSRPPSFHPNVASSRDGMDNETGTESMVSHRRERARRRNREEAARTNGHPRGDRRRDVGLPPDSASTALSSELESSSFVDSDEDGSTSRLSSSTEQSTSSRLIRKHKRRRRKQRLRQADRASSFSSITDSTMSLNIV

[3] = biological target: T4, endogenous Dishevelled-1 (Dvl1) (human (endogenous in SK-N-SH)) (UniProt O14640); experiment: co-IP; endogenous proteins of SK-N-SH cells; lysed in RIPA buffer; IP with anti-Dvl1 rabbit polyclonal antibody and Protein A/G plus-agarose at 4 °C overnight, rabbit IgG as control; blot with anti-Ngb and anti-Dvl1; also cells treated with 10 ng/mL TNF-α or PBS for 1 h (more Ngb precipitated with TNF-α)
T4 sequence: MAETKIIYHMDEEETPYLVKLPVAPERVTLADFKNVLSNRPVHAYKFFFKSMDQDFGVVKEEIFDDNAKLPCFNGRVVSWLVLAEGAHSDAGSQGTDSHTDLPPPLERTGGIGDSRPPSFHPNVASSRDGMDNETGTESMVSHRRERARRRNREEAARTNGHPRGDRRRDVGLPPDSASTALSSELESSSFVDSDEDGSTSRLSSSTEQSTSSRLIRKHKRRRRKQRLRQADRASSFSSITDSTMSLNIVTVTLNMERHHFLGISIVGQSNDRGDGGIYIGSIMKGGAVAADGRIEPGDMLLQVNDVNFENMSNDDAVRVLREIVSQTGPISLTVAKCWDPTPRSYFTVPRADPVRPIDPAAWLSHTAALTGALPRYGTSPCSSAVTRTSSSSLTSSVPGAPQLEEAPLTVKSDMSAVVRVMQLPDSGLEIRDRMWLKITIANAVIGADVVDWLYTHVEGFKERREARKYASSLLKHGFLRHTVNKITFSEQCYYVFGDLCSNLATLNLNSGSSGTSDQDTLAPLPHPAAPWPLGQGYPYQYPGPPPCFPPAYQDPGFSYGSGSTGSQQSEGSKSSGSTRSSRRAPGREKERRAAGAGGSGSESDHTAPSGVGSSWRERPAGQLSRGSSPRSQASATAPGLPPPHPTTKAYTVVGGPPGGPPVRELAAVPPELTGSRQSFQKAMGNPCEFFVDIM

B1: HA-Ngb (Neuroglobin) (protein, UniProt Q9NPG2 1-151)
chain: MERPEPELIRQSWRAVSRSPLEHGTVLFARLFALEPDLLPLFQYNCRQFSSPEDCLSSPEFLDHIRKVMLVIDAAVTNVEDLSSLEEYLASLGRKHRAVGVKLSSFSTVGESLLYMLEKCLGPAFTPATRAAWSQLYGAVVQAMSRGWDGE
Question: Which results are given for B1?
Answer: binding [1]: binds; binding [2]: no binding; binding (Myc-Dvl1(1–250) (human)): binds

B2: endogenous Neuroglobin (Ngb) (protein, UniProt Q9NPG2 1-151)
chain: B1 chain
Question: With B2 as the binder, how does the binding [3] read?
Answer: binds
